Results on 37 targets are retold here after the supplement of paper PMC12819154, “High-throughput peptide-centric local stability assay extends protein–ligand identification to membrane proteins, tissues and bacteria” (Nature Structural & Molecular Biology, 2025).

Sequences of proteins named here, by UniProt entry; tags and fusion partners are left off. A change or cut given only in a name is not applied to a line headed by its entry.
UniProt Q96BW9: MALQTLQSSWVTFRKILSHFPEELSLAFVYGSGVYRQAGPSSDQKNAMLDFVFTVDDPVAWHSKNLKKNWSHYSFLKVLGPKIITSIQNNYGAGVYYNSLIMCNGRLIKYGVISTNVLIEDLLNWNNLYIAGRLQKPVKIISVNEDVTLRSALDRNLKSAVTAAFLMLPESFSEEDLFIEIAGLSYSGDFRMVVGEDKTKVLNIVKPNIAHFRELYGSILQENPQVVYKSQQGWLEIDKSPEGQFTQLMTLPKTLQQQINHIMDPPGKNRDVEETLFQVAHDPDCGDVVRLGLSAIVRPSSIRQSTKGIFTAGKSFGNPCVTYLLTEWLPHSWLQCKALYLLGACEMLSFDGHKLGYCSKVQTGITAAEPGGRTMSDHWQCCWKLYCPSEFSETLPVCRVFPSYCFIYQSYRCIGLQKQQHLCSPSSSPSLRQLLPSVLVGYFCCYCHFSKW
UniProt Q969X6: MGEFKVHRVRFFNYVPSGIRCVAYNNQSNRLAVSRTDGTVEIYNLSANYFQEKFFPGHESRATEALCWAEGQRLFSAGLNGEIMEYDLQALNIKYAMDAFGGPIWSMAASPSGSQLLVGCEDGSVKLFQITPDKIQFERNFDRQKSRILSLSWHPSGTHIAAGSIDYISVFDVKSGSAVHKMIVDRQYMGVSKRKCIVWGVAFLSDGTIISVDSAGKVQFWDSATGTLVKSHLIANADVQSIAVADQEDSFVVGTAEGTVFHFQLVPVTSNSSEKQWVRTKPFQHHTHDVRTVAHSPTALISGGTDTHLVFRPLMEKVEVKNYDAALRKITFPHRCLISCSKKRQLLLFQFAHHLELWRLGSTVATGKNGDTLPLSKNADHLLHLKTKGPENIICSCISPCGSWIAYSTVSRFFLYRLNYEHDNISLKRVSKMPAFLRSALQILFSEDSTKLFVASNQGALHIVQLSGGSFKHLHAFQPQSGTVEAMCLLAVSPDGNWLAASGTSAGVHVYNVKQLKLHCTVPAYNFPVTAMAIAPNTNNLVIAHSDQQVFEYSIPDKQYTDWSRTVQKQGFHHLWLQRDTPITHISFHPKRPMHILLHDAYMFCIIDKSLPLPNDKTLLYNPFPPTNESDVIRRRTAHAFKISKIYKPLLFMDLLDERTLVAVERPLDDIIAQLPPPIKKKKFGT
UniProt Q96GC6: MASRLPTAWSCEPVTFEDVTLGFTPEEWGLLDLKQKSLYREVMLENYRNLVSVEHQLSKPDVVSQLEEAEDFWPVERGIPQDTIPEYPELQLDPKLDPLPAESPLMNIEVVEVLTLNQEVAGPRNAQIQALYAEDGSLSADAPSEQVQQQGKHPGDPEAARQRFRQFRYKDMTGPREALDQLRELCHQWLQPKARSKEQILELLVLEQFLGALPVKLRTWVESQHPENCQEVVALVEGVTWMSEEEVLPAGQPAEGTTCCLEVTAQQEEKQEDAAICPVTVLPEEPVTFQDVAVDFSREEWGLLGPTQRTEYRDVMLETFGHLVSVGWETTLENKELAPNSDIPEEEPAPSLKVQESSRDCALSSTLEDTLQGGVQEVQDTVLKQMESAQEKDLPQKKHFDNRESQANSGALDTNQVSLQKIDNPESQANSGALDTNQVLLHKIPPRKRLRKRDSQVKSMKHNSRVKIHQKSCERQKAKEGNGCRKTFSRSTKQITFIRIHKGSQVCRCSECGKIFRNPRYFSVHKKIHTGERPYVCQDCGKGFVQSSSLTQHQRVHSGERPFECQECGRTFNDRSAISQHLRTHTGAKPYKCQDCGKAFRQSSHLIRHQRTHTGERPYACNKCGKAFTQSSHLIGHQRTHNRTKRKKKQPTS
UniProt Q96FQ7: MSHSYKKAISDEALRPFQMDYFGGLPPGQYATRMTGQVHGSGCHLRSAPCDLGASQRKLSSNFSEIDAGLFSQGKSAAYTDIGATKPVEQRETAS
UniProt Q96CW5, whole entry: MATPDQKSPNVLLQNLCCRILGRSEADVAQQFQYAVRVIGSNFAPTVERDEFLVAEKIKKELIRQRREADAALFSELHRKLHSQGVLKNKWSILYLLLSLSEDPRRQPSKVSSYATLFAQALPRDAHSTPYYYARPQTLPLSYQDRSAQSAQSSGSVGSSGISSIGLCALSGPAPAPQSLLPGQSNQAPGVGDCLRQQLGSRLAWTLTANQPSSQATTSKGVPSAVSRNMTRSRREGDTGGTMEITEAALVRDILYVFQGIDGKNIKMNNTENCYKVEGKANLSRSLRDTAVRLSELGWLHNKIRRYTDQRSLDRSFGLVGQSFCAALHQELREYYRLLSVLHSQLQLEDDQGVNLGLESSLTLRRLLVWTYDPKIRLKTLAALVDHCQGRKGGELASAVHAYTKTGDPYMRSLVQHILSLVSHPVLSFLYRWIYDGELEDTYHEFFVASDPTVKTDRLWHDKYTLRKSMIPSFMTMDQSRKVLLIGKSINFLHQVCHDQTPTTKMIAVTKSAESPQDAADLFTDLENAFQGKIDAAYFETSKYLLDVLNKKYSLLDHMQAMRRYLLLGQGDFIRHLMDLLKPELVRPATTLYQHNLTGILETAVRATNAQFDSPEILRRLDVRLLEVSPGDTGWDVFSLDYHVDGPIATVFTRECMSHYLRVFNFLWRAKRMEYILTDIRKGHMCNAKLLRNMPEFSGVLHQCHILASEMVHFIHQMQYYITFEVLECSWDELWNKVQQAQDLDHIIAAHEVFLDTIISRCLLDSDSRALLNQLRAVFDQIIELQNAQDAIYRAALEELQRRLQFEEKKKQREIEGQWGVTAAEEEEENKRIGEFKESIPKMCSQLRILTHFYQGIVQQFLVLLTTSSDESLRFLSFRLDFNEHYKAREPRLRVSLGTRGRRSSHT
UniProt Q969L4: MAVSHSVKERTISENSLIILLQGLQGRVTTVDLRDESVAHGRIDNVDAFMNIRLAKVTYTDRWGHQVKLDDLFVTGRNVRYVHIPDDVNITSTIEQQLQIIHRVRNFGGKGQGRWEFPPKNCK
UniProt Q96DC7: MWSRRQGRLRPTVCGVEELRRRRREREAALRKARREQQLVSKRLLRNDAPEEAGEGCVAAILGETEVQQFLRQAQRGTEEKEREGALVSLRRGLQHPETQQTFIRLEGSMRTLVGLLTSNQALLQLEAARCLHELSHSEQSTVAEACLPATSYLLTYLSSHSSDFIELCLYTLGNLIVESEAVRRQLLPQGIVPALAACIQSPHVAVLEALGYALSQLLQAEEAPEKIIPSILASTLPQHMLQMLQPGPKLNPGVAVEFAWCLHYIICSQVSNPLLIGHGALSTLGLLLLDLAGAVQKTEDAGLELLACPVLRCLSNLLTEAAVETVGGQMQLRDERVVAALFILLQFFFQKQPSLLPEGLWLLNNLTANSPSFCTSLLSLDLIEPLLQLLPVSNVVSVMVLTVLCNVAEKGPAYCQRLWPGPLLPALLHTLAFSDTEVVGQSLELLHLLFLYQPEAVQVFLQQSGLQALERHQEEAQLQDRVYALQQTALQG
UniProt Q96CJ1: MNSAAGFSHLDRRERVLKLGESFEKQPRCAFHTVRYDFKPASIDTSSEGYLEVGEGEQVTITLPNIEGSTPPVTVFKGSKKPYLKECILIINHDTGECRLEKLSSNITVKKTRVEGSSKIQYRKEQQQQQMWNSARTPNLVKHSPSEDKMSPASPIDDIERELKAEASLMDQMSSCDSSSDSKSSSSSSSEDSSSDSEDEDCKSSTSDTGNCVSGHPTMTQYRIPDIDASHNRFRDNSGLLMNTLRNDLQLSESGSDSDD
UniProt Q969Y2: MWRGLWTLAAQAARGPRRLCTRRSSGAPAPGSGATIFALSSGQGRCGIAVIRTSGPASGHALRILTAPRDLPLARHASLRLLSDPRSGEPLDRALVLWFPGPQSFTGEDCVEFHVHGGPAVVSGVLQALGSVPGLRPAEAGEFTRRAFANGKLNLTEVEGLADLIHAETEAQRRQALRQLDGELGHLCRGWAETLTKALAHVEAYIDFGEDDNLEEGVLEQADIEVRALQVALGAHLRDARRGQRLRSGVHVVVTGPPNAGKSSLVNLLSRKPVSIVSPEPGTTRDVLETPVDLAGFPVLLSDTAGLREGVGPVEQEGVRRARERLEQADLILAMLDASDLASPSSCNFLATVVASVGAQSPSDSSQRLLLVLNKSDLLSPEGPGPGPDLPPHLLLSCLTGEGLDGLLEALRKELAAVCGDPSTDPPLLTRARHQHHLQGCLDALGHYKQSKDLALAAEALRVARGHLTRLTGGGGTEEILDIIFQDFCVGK
UniProt Q96D53: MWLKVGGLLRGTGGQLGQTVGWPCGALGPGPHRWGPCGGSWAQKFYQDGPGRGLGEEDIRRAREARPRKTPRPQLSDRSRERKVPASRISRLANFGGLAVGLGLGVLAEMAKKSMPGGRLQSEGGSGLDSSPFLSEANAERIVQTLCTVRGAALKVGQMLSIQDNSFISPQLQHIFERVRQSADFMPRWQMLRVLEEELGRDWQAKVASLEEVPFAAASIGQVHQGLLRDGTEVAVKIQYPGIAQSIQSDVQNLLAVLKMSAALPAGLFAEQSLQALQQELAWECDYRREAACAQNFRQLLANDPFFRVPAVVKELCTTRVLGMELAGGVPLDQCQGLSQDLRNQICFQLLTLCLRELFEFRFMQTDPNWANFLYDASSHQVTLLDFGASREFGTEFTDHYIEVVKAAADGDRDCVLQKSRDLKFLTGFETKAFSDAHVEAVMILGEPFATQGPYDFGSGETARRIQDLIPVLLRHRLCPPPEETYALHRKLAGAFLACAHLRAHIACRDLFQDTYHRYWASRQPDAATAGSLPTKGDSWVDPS
UniProt Q96B70: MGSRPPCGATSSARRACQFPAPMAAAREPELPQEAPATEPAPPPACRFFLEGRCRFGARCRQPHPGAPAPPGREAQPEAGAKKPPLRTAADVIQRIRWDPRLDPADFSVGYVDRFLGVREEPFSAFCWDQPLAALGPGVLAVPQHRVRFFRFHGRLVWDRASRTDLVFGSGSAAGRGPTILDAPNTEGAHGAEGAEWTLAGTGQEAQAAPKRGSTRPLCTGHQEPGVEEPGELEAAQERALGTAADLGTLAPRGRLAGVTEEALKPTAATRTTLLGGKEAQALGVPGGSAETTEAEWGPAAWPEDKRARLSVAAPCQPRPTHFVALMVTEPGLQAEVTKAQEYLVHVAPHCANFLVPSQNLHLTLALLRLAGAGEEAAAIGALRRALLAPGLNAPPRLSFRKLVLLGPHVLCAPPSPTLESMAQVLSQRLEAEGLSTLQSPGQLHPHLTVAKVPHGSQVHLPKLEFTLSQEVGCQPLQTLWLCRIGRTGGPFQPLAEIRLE
UniProt Q96D15: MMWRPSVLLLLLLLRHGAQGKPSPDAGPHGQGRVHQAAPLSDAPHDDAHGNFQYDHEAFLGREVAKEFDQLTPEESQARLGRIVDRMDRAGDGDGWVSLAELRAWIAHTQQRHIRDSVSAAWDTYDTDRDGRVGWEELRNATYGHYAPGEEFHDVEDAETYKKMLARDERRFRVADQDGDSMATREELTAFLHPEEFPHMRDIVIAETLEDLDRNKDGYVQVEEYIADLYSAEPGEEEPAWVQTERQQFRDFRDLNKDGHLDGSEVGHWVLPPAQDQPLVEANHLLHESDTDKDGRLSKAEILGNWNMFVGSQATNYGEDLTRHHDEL
UniProt Q96DG6: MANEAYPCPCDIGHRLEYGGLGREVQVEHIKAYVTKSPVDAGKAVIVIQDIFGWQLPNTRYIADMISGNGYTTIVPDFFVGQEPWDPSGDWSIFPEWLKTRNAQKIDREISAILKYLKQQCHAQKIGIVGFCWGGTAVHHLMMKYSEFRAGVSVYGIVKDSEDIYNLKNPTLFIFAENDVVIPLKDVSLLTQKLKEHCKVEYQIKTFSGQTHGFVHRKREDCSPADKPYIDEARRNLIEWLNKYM
UniProt Q96EP1: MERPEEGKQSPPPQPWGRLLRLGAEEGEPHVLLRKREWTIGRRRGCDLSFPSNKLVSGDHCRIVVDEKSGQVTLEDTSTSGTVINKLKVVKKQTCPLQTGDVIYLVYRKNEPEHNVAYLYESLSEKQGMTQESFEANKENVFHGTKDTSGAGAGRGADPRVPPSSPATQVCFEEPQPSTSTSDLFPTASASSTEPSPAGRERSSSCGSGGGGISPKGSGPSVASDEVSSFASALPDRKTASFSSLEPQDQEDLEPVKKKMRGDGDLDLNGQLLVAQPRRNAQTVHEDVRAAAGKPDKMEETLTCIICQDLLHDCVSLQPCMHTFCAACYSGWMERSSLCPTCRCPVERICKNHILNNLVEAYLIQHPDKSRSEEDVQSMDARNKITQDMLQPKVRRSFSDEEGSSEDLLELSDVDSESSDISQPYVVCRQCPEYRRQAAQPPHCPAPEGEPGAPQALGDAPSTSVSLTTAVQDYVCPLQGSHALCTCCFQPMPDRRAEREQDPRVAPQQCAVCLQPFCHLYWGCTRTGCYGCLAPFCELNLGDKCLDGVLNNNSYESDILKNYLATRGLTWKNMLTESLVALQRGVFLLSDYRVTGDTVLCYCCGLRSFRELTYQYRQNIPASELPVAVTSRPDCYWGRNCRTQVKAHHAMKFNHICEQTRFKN

This is one part of the list. Small differences around the control level are noise.

Compound in the assay: CN[C@@H]1C[C@H]2O[C@@](C)([C@@H]1OC)n1c3ccccc3c3c4c(c5c6ccccc6n2c5c31)C(=O)NC4 [staurosporine]
Briefly: log2 fold change of tryptic peptide abundance, ligand vs vehicle (limited proteolysis) (log2 ratio); higher = more trypsin-susceptible (destabilized). The conditions noted are these: ligand concentration: 20 uM; sample: K562 cleared lysate; digestion: 4 min, 22 C (HT-PELSA RT4min, Orbitrap Astral).
For the target “LRRC45 (peptide sequence: VGQLQEALNER, peptide start residue: 284) (UniProt Q96CN5)”, the log2 fold change was -0.365.
Take “MRPS24 (peptide sequence: GDKPVTYEEAHAPHYIAHR, peptide start residue: 47) (UniProt Q96EL2)”: the log2 fold change is -0.317.
“UniProt Q96BW9 (peptide sequence: LGLSAIVRPSSIR, peptide start residue: 291)”: the log2 fold change was 0.0137.
On to “AIDA (peptide sequence: IATCLELR, peptide start residue: 66) (UniProt Q96BJ3)”, for which the log2 fold change is 0.0542.
For “UniProt Q969X6 (peptide sequence: QLLLFQFAHHLELWR, peptide start residue: 345)” the value was 0.656; for “PHF21A (peptide sequence: GMWICPRCQDQMLK, peptide start residue: 525) (UniProt Q96BD5)”, 0.586.
For “UniProt Q96GC6 (peptide sequence: ESQANSGALDTNQVSLQK, peptide start residue: 404)” the value was -0.676; for “RBMXL1 (peptide sequence: IVEVLLIKDRETNK, peptide start residue: 34) (UniProt Q96E39)”, 0.413.
Turning to “LINC00526 (peptide sequence: MTGQVHGSGCHLR, peptide start residue: 34) (UniProt Q96FQ7)”, the log2 fold change is -0.652.
As to “UniProt Q96CS2 (peptide sequence: GMDASLSHQSLVALSEKLAR, peptide start residue: 207)”, the log2 fold change is -0.509.
Consider “TUBGCP3 (peptide sequence: YLLLGQGDFIR, peptide start residue: 565) (UniProt Q96CW5)”, for which the log2 fold change was determined as 0.943.
For the target “UniProt Q96DN5 (peptide sequence: CQTPHLLAA, peptide start residue: 1058)”, the log2 fold change was -0.741.
Take “UniProt Q96GC9 (peptide sequence: EHHNGNFTDPSSVNEK, peptide start residue: 18)”: the log2 fold change was -0.233.
“UniProt Q92985 (peptide sequence: NCDTPIFDFR, peptide start residue: 399)”: the log2 fold change came out at 0.164.
Take “LSM10 (peptide sequence: LDDLFVTGR, peptide start residue: 69) (UniProt Q969L4)”: the log2 fold change was -0.453.
For “TRIM11 (peptide sequence: VPGLVETLR, peptide start residue: 275) (UniProt Q96F44)”, the log2 fold change was -0.167.
For “FAM122A (peptide sequence: SQSPINCIRPSVLGPLK, peptide start residue: 187) (UniProt Q96E09)” the value was 0.102; for “TMCO6 (peptide sequence: LRPTVCGVEELR, peptide start residue: 9) (UniProt Q96DC7)”, 0.173.
For “UniProt Q96GE4 (peptide sequence: HKVQENIGPLR, peptide start residue: 495)” the value was 0.528.
On to “UniProt Q96CJ1 (peptide sequence: KEQQQQQMWNSAR, peptide start residue: 124)”, for which the log2 fold change was -0.0989.
For “INPP5D (peptide sequence: FTHLFWFGDLNYR, peptide start residue: 599) (UniProt Q92835)” the value was 0.13; for “BICD1 (peptide sequence: ILEMQNELK, peptide start residue: 109) (UniProt Q96G01)”, 0.297; for “SIPA1 (peptide sequence: LGFEVDAEGFVTHVER, peptide start residue: 698) (UniProt Q96FS4)”, -0.65.
For “WDR89 (peptide sequence: MEKIEEQFANLHIVK, peptide start residue: 1) (UniProt Q96FK6)” the value was 0.191; for “UniProt Q96CK0 (peptide sequence: LAAYLISLER, peptide start residue: 83)”, -0.197; for “MBD6 (peptide sequence: AQAPSASHSSSLRPSQR, peptide start residue: 348) (UniProt Q96DN6)”, 0.436.
Next, “TTC17 (peptide sequence: DIALVNLANVLHR, peptide start residue: 262) (UniProt Q96AE7)”: -0.609.
For “LRRC59 (peptide sequence: LQQLPADFGR, peptide start residue: 74) (UniProt Q96AG4)”, the log2 fold change is 0.175.
With “GTPBP3 (peptide sequence: KPVSIVSPEPGTTR, peptide start residue: 272) (UniProt Q969Y2)”, the log2 fold change is 0.319.
Take “UniProt Q96D53 (peptide sequence: QLLANDPFFRVPAVVK, peptide start residue: 299)”: the log2 fold change came to 0.242.
For the target “NABP1 (peptide sequence: EHQFSHAGR, peptide start residue: 160) (UniProt Q96AH0)”, the log2 fold change is 0.0245.
Regarding “LENG9 (peptide sequence: TDLVFGSGSAAGR, peptide start residue: 164) (UniProt Q96B70)”, the log2 fold change is -0.192.
Turning to “ATG4C (peptide sequence: FISAWNNMK, peptide start residue: 16) (UniProt Q96DT6)”, the log2 fold change is 0.00855.
For the target “RCN3 (peptide sequence: DIVIAETLEDLDRNK, peptide start residue: 202) (UniProt Q96D15)”, the log2 fold change worked out at 0.227.
On to “CMBL (peptide sequence: NLIEWLNK, peptide start residue: 236) (UniProt Q96DG6)”, for which the log2 fold change was -0.167.
For the target “GPRASP2 (peptide sequence: AGEEVIAGPERENDVPLVVRPK, peptide start residue: 18) (UniProt Q96D09)”, the log2 fold change was -0.165.
Next, “CHFR (peptide sequence: LVSGDHCR, peptide start residue: 55) (UniProt Q96EP1)”: 0.201.
